According to article PMC12631102, “SYT4 Interacts with PSMC6 to Facilitate Malignant Progression in Gastric Carcinoma via Activating Wnt/β-catenin Signaling” (International Journal of Biological Sciences, 2025):
These are yes or no findings as the source states them, for the method shown. In cells and extracts the contact can be indirect. Some entries that bind do so weakly or less than the wild type. For part of these data: Sequences can lack the tags named with a protein.

Protein sequences, listed by entry. Tags and fused reporters are not part of them.
UniProt P62333: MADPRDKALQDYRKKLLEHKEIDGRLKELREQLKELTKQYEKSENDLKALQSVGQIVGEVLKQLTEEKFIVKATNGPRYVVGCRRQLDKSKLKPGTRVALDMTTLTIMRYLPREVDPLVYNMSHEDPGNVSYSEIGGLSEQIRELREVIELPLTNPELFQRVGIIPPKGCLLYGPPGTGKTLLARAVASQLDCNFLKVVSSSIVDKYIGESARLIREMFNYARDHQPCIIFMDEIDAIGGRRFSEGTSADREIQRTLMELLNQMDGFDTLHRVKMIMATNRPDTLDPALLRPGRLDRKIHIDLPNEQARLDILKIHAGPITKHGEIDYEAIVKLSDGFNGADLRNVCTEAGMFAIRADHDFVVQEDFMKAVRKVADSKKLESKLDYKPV

Experiments:
Assay in all cases: co-IP; RIPA lysates, 1 mg protein with 10 μg anti-Flag or IgG overnight at 4 °C, protein A/G magnetic beads, SDS-PAGE and blot
[1] = target: T1, SYT4-C2B mutant (amino acids 288-423) (UniProt Q9H2B2)
T1 sequence: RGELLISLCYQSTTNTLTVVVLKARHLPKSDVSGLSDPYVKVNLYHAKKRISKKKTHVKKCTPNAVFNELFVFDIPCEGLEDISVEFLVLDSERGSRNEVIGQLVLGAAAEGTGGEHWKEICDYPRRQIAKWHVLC

[2] = target: T2, Synaptotagmin-4 (SYT4), overexpressed in cells (UniProt Q9H2B2)
T2 sequence: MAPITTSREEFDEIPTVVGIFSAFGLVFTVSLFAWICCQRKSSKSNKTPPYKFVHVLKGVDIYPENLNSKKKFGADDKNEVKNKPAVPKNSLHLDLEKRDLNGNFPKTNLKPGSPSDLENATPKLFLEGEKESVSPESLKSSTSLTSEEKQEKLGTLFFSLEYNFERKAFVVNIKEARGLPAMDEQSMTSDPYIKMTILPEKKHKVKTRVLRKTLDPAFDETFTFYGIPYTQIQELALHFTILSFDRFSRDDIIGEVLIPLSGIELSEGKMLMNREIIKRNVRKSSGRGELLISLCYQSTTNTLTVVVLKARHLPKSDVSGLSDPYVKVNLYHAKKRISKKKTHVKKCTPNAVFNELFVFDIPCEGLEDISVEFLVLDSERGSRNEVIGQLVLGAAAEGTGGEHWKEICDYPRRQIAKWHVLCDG

[3] = target: T3, Full-length SYT4 (construct of the truncation series) (UniProt Q9H2B2)
T3 sequence: T2 sequence

Measured: binding

Proteasome 26S subunit ATPase 6 (PSMC6), in cell lysate (from UniProt P62333 1-389)
binds: all assays above
